Laboratory results published in PubChem BioAssay AID248 (DTP/NCI, 2004).
The list is a part of this screen's results and no random one: it is rich in T/C values a quarter to a half above the control, in often repeated tests (any T/C) and in doses without a T/C. Further doses and runs are listed elsewhere. T/C is the treated group as % of the vehicle group. Some doses have a count of surviving animals in place of a T/C: the source files T/C as zero there, which appears to mark a toxic dose or a test without result, not a measured value. Some survivor counts are full or nearly so, which does not show that the dose was tolerated: survival well below the control is almost never listed, so the zero probably covers shortened survival too. Survivors were counted at the toxicity check, usually on the fifth day, unless a day is given; later deaths do not show. Schedules are NCI's codes, read here as Q, the interval in days (D) or hours (H), X, the number of doses. Some entries hold several experiments; the results are listed from low to high. Some schedule codes hold Z or #, which are not explained here. Where survival is the endpoint, this PubChem deposit counts one and a half times the control or more as active, and values a quarter to a half above the control carry no call in these data; other NCI protocols may use other cut-offs. Some T/C values carry the count of animals alive at the toxicity check (mostly the fifth day); where none is given, no animal had died by that day.

Tested on: L1210 leukemia ip in BDF1 mice, survival T/C
Experiment: NCI In Vivo Anticancer Drug Screen. Data for tumor model L1210 Leukemia (intraperitoneal) in B6D2F1 (BDF1) mice
Settings: T/C endpoint: mean survival time, higher T/C = longer survival
[1] = dose: 100.0 mg/kg/injection, schedule: Q01DX Z (ip), vehicle: saline
[2] = dose: 400.0 mg/kg/injection, schedule: Q04DX003 (ip), vehicle: saline
[3] = dose: 50.0 mg/kg/injection, schedule: Q01DX009 (ip), vehicle: other
[4] = dose: 100.0 mg/kg/injection, schedule: Q01DX009 (ip), vehicle: other
[5] = dose: 25.0 mg/kg/injection, schedule: Q01DX009 (ip), vehicle: saline
[6] = dose: 100.0 mg/kg/injection, schedule: Q01DX009 (ip), vehicle: saline
[7] = dose: 400.0 mg/kg/injection, schedule: Q01DX009 (ip), vehicle: Klucel (hydroxypropylcellulose) (HPC)
[8] = dose: 200.0 mg/kg/injection, schedule: Q01DX001 (ip), vehicle: carboxymethylcellulose (CMC)
[9] = dose: 200.0 mg/kg/injection, schedule: Q01DX Z (ip), vehicle: saline
[10] = dose: 400.0 mg/kg/injection, schedule: Q01DX001 (ip), vehicle: carboxymethylcellulose (CMC)
[11] = dose: 400.0 mg/kg/injection, schedule: Q01DX009 (ip), vehicle: saline
[12] = dose: 400.0 mg/kg/injection, schedule: Q04DX002 (ip), vehicle: Klucel (hydroxypropylcellulose) (HPC)

Structure (SMILES): NCC(=O)NC1(C(=O)O)CCCC1
- T/C (dose: 54.0 mg/kg/injection, schedule: Q01DX Z (ip), vehicle: carboxymethylcellulose (CMC)): 126 % of control
- T/C (dose: 60.0 mg/kg/injection, schedule: Q01DX Z (ip), vehicle: other): 126 % of control
- T/C (dose: 80.0 mg/kg/injection, schedule: Q01DX Z (ip), vehicle: carboxymethylcellulose (CMC)): 129 % of control
- T/C (dose: 80.0 mg/kg/injection, schedule: Q01DX Z (ip), vehicle: saline): 128 % of control
- T/C [1]: 134 % of control
- T/C (dose: 120.0 mg/kg/injection, schedule: Q01DX015 (ip), vehicle: saline): 137 % of control
- T/C (dose: 120.0 mg/kg/injection, schedule: Q01DX Z (ip), vehicle: other): 146 and 148 % of control
- T/C (dose: 180.0 mg/kg/injection, schedule: Q01DX015 (ip), vehicle: saline): 137 % of control
- T/C (dose: 180.0 mg/kg/injection, schedule: Q01DX Z (ip), vehicle: saline): 139 % of control [5 of 6 alive]
- T/C (dose: 240.0 mg/kg/injection, schedule: Q01DX017 (ip), vehicle: saline): 132 % of control
- T/C (dose: 240.0 mg/kg/injection, schedule: Q01DX Z (ip), vehicle: other): 125 % of control
- T/C (dose: 264.0 mg/kg/injection, schedule: Q04DX003 (ip), vehicle: saline): 131 and 146 % of control
- T/C [2]: 138 and 146 % of control
- survivor count (dose: 960.0 mg/kg/injection, schedule: Q01DX Z (ip), vehicle: other): 2 of 6

Structure (SMILES): CN(CCO)N=Nc1ccccc1
- survivor count (dose: 12.5 mg/kg/injection, schedule: Q04DX003 (ip), vehicle: other): 6 of 6
- survivor count (dose: 25.0 mg/kg/injection, schedule: Q04DX003 (ip), vehicle: other): 6 of 6
- survivor count [3]: 1 of 6
- survivor count (dose: 50.0 mg/kg/injection, schedule: Q04DX003 (ip), vehicle: other): 2 of 6 and 6 of 6
- survivor count [4]: 0 of 6
- survivor count (dose: 100.0 mg/kg/injection, schedule: Q04DX003 (ip), vehicle: other): 0 of 6
- survivor count (dose: 200.0 mg/kg/injection, schedule: Q01DX009 (ip), vehicle: other): 0 of 6
- survivor count (dose: 200.0 mg/kg/injection, schedule: Q04DX003 (ip), vehicle: other): 0 of 6
- survivor count (dose: 400.0 mg/kg/injection, schedule: Q01DX009 (ip), vehicle: other): 0 of 6

Structure (SMILES): COc1ccc(C(SCC(N)C(=O)O)(c2ccccc2)c2ccc(OC)cc2)cc1 (stereo unspecified)
- T/C (dose: 12.5 mg/kg/injection, schedule: Q01DX009 (ip), vehicle: saline): 135 and 136 % of control
- T/C (dose: 25.0 mg/kg/injection, schedule: Q01DX009 (ip), vehicle: other): 127 % of control
- T/C [5]: 149 % of control
- survivor count [3]: 6 of 6
- survivor count [4]: 0 of 6
- survivor count [6]: 0 of 6

Structure (SMILES): CC(C)CCCC(C)CCC1C(=O)NC(=O)NC1=O (stereo unspecified)
- survivor count (dose: 300.0 mg/kg/injection, schedule: Q01DX001 (ip), vehicle: saline): 1 of 6

Structure (SMILES): O=C(O)/C=C/C(=O)Nc1ccc([N+](=O)[O-])c(C(F)(F)F)c1
- survivor count [7]: 0 of 6

Structure (SMILES): C=CCSc1ncnc2c1ncn2C1OC(CO)C(O)C1O (stereo unspecified)
- T/C (dose: 50.0 mg/kg/injection, schedule: Q01DX Z (ip), vehicle: saline): 133 and 135 % of control
- T/C (dose: 58.0 mg/kg/injection, schedule: Q01DX009 (ip), vehicle: carboxymethylcellulose (CMC)): 125 % of control
- T/C (dose: 67.0 mg/kg/injection, schedule: Q01DX Z (ip), vehicle: saline): 136 % of control
- T/C (dose: 88.0 mg/kg/injection, schedule: Q01DX009 (ip), vehicle: carboxymethylcellulose (CMC)): 131 % of control [5 of 6 alive]
- T/C [1]: 133 % of control [4 of 6 alive]
- T/C (dose: 101.0 mg/kg/injection, schedule: Q01DX Z (ip), vehicle: saline): 145 % of control
- T/C (dose: 133.0 mg/kg/injection, schedule: Q01DX009 (ip), vehicle: carboxymethylcellulose (CMC)): 134 % of control
- T/C (dose: 177.0 mg/kg/injection, schedule: Q01DX001 (ip), vehicle: carboxymethylcellulose (CMC)): 134 and 138 % of control
- T/C [8]: 129 % of control
- T/C [9]: 132 % of control
- survivor count [9]: 0 of 6
- T/C (dose: 225.0 mg/kg/injection, schedule: Q01DX Z (ip), vehicle: saline): 138 % of control
- T/C [10]: 134 % of control
- survivor count [10]: 3 of 6
- survivor count (dose: 500.0 mg/kg/injection, schedule: Q01DX Z (ip), vehicle: saline): 0 of 6
- survivor count (dose: 600.0 mg/kg/injection, schedule: Q01DX001 (ip), vehicle: carboxymethylcellulose (CMC)): 0 of 6

Structure (SMILES): O=C(Nc1cccc(F)c1)Nc1ccc(C(=O)O)c(O)c1
- survivor count (dose: 400.0 mg/kg/injection, schedule: Q01DX009 (ip), vehicle: saline with Tween-80): 0 of 6

Structure (SMILES): Cc1cc([N+](=O)[O-])cc([N+](=O)[O-])c1OC(=O)c1ccc(N=C(N)N)cc1
- survivor count [5]: 3 of 6
- survivor count (dose: 50.0 mg/kg/injection, schedule: Q01DX009 (ip), vehicle: saline): 6 of 6
- survivor count [6]: 6 of 6
- survivor count (dose: 200.0 mg/kg/injection, schedule: Q01DX009 (ip), vehicle: saline): 1 of 6 and 2 of 6
- survivor count (dose: 200.0 mg/kg/injection, schedule: Q04DX003 (ip), vehicle: saline): 6 of 6
- survivor count [11]: 0 of 6
- survivor count [2]: 1 of 6

Structure (SMILES): CNc1cccc([N+](=O)[O-])c1
- survivor count (dose: 400.0 mg/kg/injection, schedule: Q01DX001 (ip), vehicle: saline): 2 of 4

Structure (SMILES): CC1(C#N)CCc2c(ccc3ccccc23)C1=O (stereo unspecified)
- survivor count [11]: 6 of 6

Structure (SMILES): CC(C)(C)c1ccc(O)c(C(C)(C)C)c1
- survivor count (dose: 400.0 mg/kg/injection, schedule: Q04DX003 (ip), vehicle: saline with Tween-80): 3 of 6

Structure (SMILES): CCN(CC)C(=O)OCCCN(C)C
- survivor count (dose: 100.0 mg/kg/injection, schedule: Q01DX009 (ip), vehicle: Klucel (hydroxypropylcellulose) (HPC)): 2 of 6
- survivor count (dose: 200.0 mg/kg/injection, schedule: Q01DX009 (ip), vehicle: Klucel (hydroxypropylcellulose) (HPC)): 0 of 6
- survivor count [2]: 0 of 6

Structure (SMILES): COc1cccc(C(=O)O)c1O
- survivor count (dose: 300.0 mg/kg/injection, schedule: Q01DX001 (ip), vehicle: acetone): 3 of 6

Structure (SMILES): C/C(=N\O)c1c[nH]c(=O)[nH]c1=O
- survivor count [12]: 0 of 3

Structure (SMILES): O=C1CCC(=O)N1SC(Cl)(Cl)Cl
- survivor count (dose: 160.0 mg/kg/injection, schedule: Q01DX009 (ip), vehicle: saline): 6 of 6
- survivor count (dose: 200.0 mg/kg/injection, schedule: Q04DX002 (ip), vehicle: saline with Tween-80): 3 of 3
- survivor count (dose: 400.0 mg/kg/injection, schedule: Q04DX002 (ip), vehicle: saline with Tween-80): 2 of 3

Structure (SMILES): CC/C(=C(\CC)c1ccc(OCCN(CC)CC)cc1)c1ccc(OCCN(CC)CC)cc1
- survivor count (dose: 20.0 mg/kg/injection, schedule: Q01DX001 (ip), vehicle: carboxymethylcellulose (CMC)): 1 of 4
- survivor count (dose: 50.0 mg/kg/injection, schedule: Q01DX001 (ip), vehicle: carboxymethylcellulose (CMC)): 0 of 4
- survivor count (dose: 80.0 mg/kg/injection, schedule: Q01DX001 (ip), vehicle: carboxymethylcellulose (CMC)): 0 of 4
- survivor count [8]: 0 of 4
- survivor count [10]: 0 of 4

Structure (SMILES): CC(C)COCCCN
- survivor count [6]: 2 of 6

Structure (SMILES): CCOCc1c(COc2ccc(Br)cc2)n(C)c2ccccc12
- survivor count (dose: 100.0 mg/kg/injection, schedule: Q01DX009 (ip), vehicle: saline with Tween-80): 3 of 3

Structure (SMILES): [O-][n+]1ccccc1-c1ccccc1
- survivor count [12]: 1 of 3

Structure (SMILES): CC(C)CCc1c(N)nc(NCCCc2ccccc2)nc1N
- survivor count (dose: 400.0 mg/kg/injection, schedule: Q01DX001 (ip), vehicle: Klucel (hydroxypropylcellulose) (HPC)): 0 of 6

Structure (SMILES): CCOC(=O)Nc1ccc(NC(=O)OCC)cc1
- survivor count [7]: 6 of 6
